Data published in PMC6925144, “A prospective compound screening contest identified broader inhibitors for Sirtuin 1” (Scientific Reports, 2019).
Whole data set: some 3,200 compounds, median “TSA(without NAD+) / Primary screening (TSA) / delta Tm (K)” near -0.07, cut for the highest 2% near 0.37. This is one part of the list.

Amino acid sequences for entries named in this document (tags omitted). Residues count along the entry.
UniProt Q96EB6, 2-747 limits assumed: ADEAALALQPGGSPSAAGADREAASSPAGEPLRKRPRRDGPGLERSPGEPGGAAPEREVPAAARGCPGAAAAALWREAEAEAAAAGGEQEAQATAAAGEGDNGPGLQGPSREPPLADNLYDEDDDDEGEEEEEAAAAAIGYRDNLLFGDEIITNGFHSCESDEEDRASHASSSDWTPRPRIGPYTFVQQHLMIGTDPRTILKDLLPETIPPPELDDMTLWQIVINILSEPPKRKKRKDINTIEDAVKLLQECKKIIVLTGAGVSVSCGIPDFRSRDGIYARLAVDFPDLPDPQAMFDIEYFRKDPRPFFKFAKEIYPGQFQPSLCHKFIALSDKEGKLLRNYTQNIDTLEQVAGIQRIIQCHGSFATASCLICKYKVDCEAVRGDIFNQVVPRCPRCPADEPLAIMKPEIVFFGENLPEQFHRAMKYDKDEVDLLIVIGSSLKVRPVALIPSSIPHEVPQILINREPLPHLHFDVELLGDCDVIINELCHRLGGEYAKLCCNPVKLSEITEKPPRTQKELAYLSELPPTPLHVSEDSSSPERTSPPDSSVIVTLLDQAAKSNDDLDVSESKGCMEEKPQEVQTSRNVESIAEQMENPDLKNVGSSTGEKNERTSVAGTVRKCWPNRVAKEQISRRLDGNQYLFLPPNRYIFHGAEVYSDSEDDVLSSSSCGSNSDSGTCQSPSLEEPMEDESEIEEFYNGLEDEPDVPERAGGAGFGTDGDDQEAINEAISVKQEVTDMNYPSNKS

target: NAD-dependent deacetylase Sirtuin 1 (human, UniProt Q96EB6); assay: primary screen, delta tm; set-up: single well (n = 1); conditions: 10 µM
Summary of the method: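 Thermal shift of Sirtuin 1 measured without NAD+, compound at 10 µM (n = 1); value is ΔTm, with hits defined as ΔTm > 0.45 K or < −1.5 K. Hits retested at 5, 10, 20 µM (n = 4) and counterscreened on bovine carbonic anhydrase and ABL1 SH2 domain.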

Row | Structure (SMILES) | TSA(without NAD+) / Primary screening (TSA) / delta Tm (K)
1 | CS(=O)(=O)NCC1CCCN(C(=O)c2ccc3[nH]c4c(c3c2)CCCCC4)C1 (stereo not drawn) | -0.21
2 | CC(C(=O)N1CCCC1)N1CCN(Cc2csc3ccccc23)CC1 (stereo not drawn) | -0.03
3 | CC(N)CN (stereo not drawn) | -0.03
4 | Cc1ccc(NS(=O)(=O)c2cccc(C(=O)NC3CCC(CC4CCC(NC(=O)c5cccc(S(=O)(=O)Nc6ccc(C)cc6C)c5)CC4)CC3)c2)c(C)c1 (stereo not drawn) | 0.03
5 | Cc1noc(C(NC(=O)c2cc(C(N)=O)cs2)C(C)C)n1 (stereo not drawn) | 0.02
6 | Cc1ccc(-n2cnc3c2CCNC3)cc1 | -0.22
7 | CC1CCN(c2ccc(NC(=O)CSc3nnc(NCc4ccco4)s3)cc2)CC1 | -0.02
8 | Cc1nc2ncnn2c(N2CCn3c(nnc3-c3ccccc3)C2)c1C | -0.17
9 | CCCCCC(C)NC(=O)c1cccc(S(=O)(=O)N(C)c2ccc(OC)cc2)c1 (stereo not drawn) | 0.25
10 | COc1ccc(C(CNC=C2C(=O)NC(=S)NC2=O)N(C)C)cc1 (stereo not drawn) | -0.04
11 | COc1ccccc1NC(=O)C1CCN(C(=O)Nc2ccc(C)cc2OCc2ccccc2)CC1 | -0.01
12 | O=c1[nH]c2ccccc2c(=O)n1CCSCCCO | -0.02
13 | O=C(CSc1nnnn1-c1ccc(O)cc1)N1N=C(c2ccc3ccccc3c2)CC1c1ccccc1 (stereo not drawn) | 0.49
14 | O=C(NC1CCSc2ccccc21)c1ccc2c(=O)n3c(nc2c1)CCC3 (stereo not drawn) | -0.02
15 | NC(=O)c1ccc(CN2CCSCC2)cc1 | 0.06
16 | N#CC(C(=O)c1ccc([N+](=O)[O-])s1)=C1Nc2ccccc2N1 | -0.27
17 | NNC(=O)COc1ccccc1Cl | -0.08
18 | O=c1cc(NCC2COc3ccccc3O2)nc2ccccn12 (stereo not drawn) | -0.13
19 | CC1CCN(c2nnc(SCC(=O)Nc3sc4c(c3C(N)=O)CCC4)n2C2CC2)CC1 | 0.15
20 | O=C(NCc1ccc(S(=O)(=O)N2CCOCC2)cc1)C12CC3CC(C1)CC(c1ccccc1)(C3)C2 | -0.02
21 | COC(=O)C1Cc2ccccc2N1 (stereo not drawn) | -0.23
22 | O=C(COc1ccc(Cl)cc1)OCCCC(=O)c1ccc(F)cc1 | -0.11
23 | Cc1c(-c2ccccc2)sc(NC(=O)C23CC4CC(CC(O)(C4)C2)C3)c1C(=O)N1CCOCC1 | -0.02
24 | O=C(C1=C(O)C(=O)N(CCCN2CCOCC2)C1c1ccco1)c1cc2ccccc2o1 (stereo not drawn) | 0.02

Reformatted in CSV form: part of the list above
Row,Structure (SMILES),TSA(without NAD+) / Primary screening (TSA) / delta Tm (K)
1,CS(=O)(=O)NCC1CCCN(C(=O)c2ccc3[nH]c4c(c3c2)CCCCC4)C1 (stereo not drawn),-0.21
2,CC(C(=O)N1CCCC1)N1CCN(Cc2csc3ccccc23)CC1 (stereo not drawn),-0.03
3,CC(N)CN (stereo not drawn),-0.03
4,Cc1ccc(NS(=O)(=O)c2cccc(C(=O)NC3CCC(CC4CCC(NC(=O)c5cccc(S(=O)(=O)Nc6ccc(C)cc6C)c5)CC4)CC3)c2)c(C)c1 (stereo not drawn),0.03
5,Cc1noc(C(NC(=O)c2cc(C(N)=O)cs2)C(C)C)n1 (stereo not drawn),0.02
6,Cc1ccc(-n2cnc3c2CCNC3)cc1,-0.22
7,CC1CCN(c2ccc(NC(=O)CSc3nnc(NCc4ccco4)s3)cc2)CC1,-0.02
8,Cc1nc2ncnn2c(N2CCn3c(nnc3-c3ccccc3)C2)c1C,-0.17

Further structures

Row | Structure (SMILES) | TSA(without NAD+) / Primary screening (TSA) / delta Tm (K)
25 | CCOc1ccc(C2C(C(=O)c3sc(C)nc3C)=C(O)C(=O)N2CCCN2CCOCC2)cc1 (stereo not drawn) | -0.28
26 | NC(=O)c1ccc(C(=O)N2Cc3cc4c(cc3C3(CCCC3)C2)OCCO4)cc1 | -0.08
27 | CN(Cc1ccco1)C(=O)CSc1nccn1Cc1ccccn1 | -0.08
28 | COc1cccc(C(=O)C2=C(O)C(=O)N(CCCN3CCOCC3)C2c2ccc(C)o2)c1 (stereo not drawn) | -0.02
29 | Cc1nc(-c2ccc(NC(=O)C3Cc4ccccc4O3)cc2)co1 (stereo not drawn) | 0.15
30 | NC(=O)c1ccc2[nH]c3c(c2c1)CCCC3 | 0.12
31 | COC(C)(C)CN | 0.02
32 | Cc1noc(C)c1CNc1ncnc2ccsc12 | -0.31
33 | NC(=O)c1cc(NC(=O)CC(c2ccccc2)c2ccccc2)cc(C(N)=O)c1 | -0.02
34 | COC(=O)c1cc(Br)cc(C(=O)O)c1 | -0.17
35 | CC(C)N(CC(N)=O)CC(=O)Nc1ccc2oc3ccccc3c2c1 | -0.07
36 | O=c1[nH]c2ccccc2c2nc(-c3cc(-c4ccccc4)n[nH]3)nn12 | -0.15
37 | CC(C)C(=O)N1CCC(C(=O)N2CCc3cc(S(=O)(=O)N(C)C)ccc32)CC1 | -0.13
38 | CC(C(N)=O)N(C)Cc1ccccc1OC(F)(F)F (stereo not drawn) | -0.12
39 | NC(=O)N1CCCC(C(=O)NCc2nncn2-c2ccccc2)C1 (stereo not drawn) | -0.03
40 | Cc1nc(COc2ccc(C(=O)Nc3ccc(S(=O)(=O)Nc4cccc(F)c4)cc3)cc2)cs1 | 0.09
41 | O=C(COC(=O)c1cccc(S(=O)(=O)N2CCc3ccccc32)c1)NC12CC3CC(CC(C3)C1)C2 | 0.23
42 | COc1cc(CN(C)C(=O)c2ccc3c(c2)NC(=O)CS3)ccc1OCc1ccccc1 | 0.08
43 | CCCCCCCC(=O)NCC(=O)O | -0.02
44 | O=C(Nc1ccc2c3c(cccc13)CC2)N1CCC(n2cncn2)CC1 | -0.12
45 | CC(Nc1ncnc2c(F)cccc12)c1ccc(NC(=O)NC2CC2)cc1 (stereo not drawn) | -0.02
46 | CCCCn1c(N)c(N(CC(C)C)C(=O)c2cccc(S(=O)(=O)N(C)c3ccc(C)cc3)c2)c(=O)[nH]c1=O | -0.18
47 | Cc1cc(C)n2nc(C(=O)Nc3ccccc3Cc3ccccc3)nc2n1 | 0.02
48 | COc1cc2nc(S)n(C)c(=O)c2cc1OC | 0.12
